These are yes or no findings as the source states them, for the method shown. Binding seen in cells or lysates may run through a third protein. For some of these results: A result given as binding can be weak or reduced; the word gives no strength. Sequences can lack the tags named with a protein.
B1: flag-NLRP12 (protein, UniProt P59046 1-1061)
chain: MLRTAGRDGLCRLSTYLEELEAVELKKFKLYLGTATELGEGKIPWGSMEKAGPLEMAQLLITHFGPEEAWRLALSTFERINRKDLWERGQREDLVRDTPPGGPSSLGNQSTCLLEVSLVTPRKDPQETYRDYVRRKFRLMEDRNARLGECVNLSHRYTRLLLVKEHSNPMQVQQQLLDTGRGHARTVGHQASPIKIETLFEPDEERPEPPRTVVMQGAAGIGKSMLAHKVMLDWADGKLFQGRFDYLFYINCREMNQSATECSMQDLIFSCWPEPSAPLQELIRVPERLLFIIDGFDELKPSFHDPQGPWCLCWEEKRPTELLLNSLIRKKLLPELSLLITTRPTALEKLHRLLEHPRHVEILGFSEAERKEYFYKYFHNAEQAGQVFNYVRDNEPLFTMCFVPLVCWVVCTCLQQQLEGGGLLRQTSRTTTAVYMLYLLSLMQPKPGAPRLQPPPNQRGLCSLAADGLWNQKILFEEQDLRKHGLDGEDVSAFLNMNIFQKDINCERYYSFIHLSFQEFFAAMYYILDEGEGGAGPDQDVTRLLTEYAFSERSFLALTSRFLFGLLNEETRSHLEKSLCWKVSPHIKMDLLQWIQSKAQSDGSTLQQGSLEFFSCLYEIQEEEFIQQALSHFQVIVVSNIASKMEHMVSSFCLKRCRSAQVLHLYGATYSADGEDRARCSAGAHTLLVQLPERTVLLDAYSEHLAAALCTNPNLIELSLYRNALGSRGVKLLCQGLRHPNCKLQNLRLKRCRISSSACEDLSAALIANKNLTRMDLSGNGVGFPGMMLLCEGLRHPQCRLQMIQLRKCQLESGACQEMASVLGTNPHLVELDLTGNALEDLGLRLLCQGLRHPVCRLRTLWLKICRLTAAACDELASTLSVNQSLRELDLSLNELGDLGVLLLCEGLRHPTCKLQTLRLGICRLGSAACEGLSVVLQANHNLRELDLSFNDLGDWGLWLLAEGLQHPACRLQKLWLDSCGLTAKACENLYFTLGINQTLTDLYLTNNALGDTGVRLLCKRLSHPGCKLRVLWLFGMDLNKMTHSRLAALRVTKPYLDIGC
B2: His-HK2 (enzyme, UniProt P52789 1-917)
chain: MIASHLLAYFFTELNHDQVQKVDQYLYHMRLSDETLLEISKRFRKEMEKGLGATTHPTAAVKMLPTFVRSTPDGTEHGEFLALDLGGTNFRVLWVKVTDNGLQKVEMENQIYAIPEDIMRGSGTQLFDHIAECLANFMDKLQIKDKKLPLGFTFSFPCHQTKLDESFLVSWTKGFKSSGVEGRDVVALIRKAIQRRGDFDIDIVAVVNDTVGTMMTCGYDDHNCEIGLIVGTGSNACYMEEMRHIDMVEGDEGRMCINMEWGAFGDDGSLNDIRTEFDQEIDMGSLNPGKQLFEKMISGMYMGELVRLILVKMAKEELLFGGKLSPELLNTGRFETKDISDIEGEKDGIRKAREVLMRLGLDPTQEDCVATHRICQIVSTRSASLCAATLAAVLQRIKENKGEERLRSTIGVDGSVYKKHPHFAKRLHKTVRRLVPGCDVRFLRSEDGSGKGAAMVTAVAYRLADQHRARQKTLEHLQLSHDQLLEVKRRMKVEMERGLSKETHASAPVKMLPTYVCATPDGTEKGDFLALDLGGTNFRVLLVRVRNGKWGGVEMHNKIYAIPQEVMHGTGDELFDHIVQCIADFLEYMGMKGVSLPLGFTFSFPCQQNSLDESILLKWTKGFKASGCEGEDVVTLLKEAIHRREEFDLDVVAVVNDTVGTMMTCGFEDPHCEVGLIVGTGSNACYMEEMRNVELVEGEEGRMCVNMEWGAFGDNGCLDDFRTEFDVAVDELSLNPGKQRFEKMISGMYLGEIVRNILIDFTKRGLLFRGRISERLKTRGIFETKFLSQIESDCLALLQVRAILQHLGLESTCDDSIIVKEVCTVVARRAAQLCGAGMAAVVDRIRENRGLDALKVTVGVDGTLYKLHPHFAKVMHETVKDLAPKCDVSFLQSEDGSGKGAALITAVACRIREAGQR

Experiments:
[1] = molecular target: TRIM25 truncation: PRY/SPRY domain (human); assay: co-IP; 293T cells cotransfected with TRIM25 or its truncations and flag-NLRP12 or His-HK2; IP and Western blot
[2] = molecular target: TRIM25 truncation: Ring/B-box/CC domain (human); assay: as above

Binder	binding [1]	binding [2]
B1	no binding	binds
B2	no binding	binds

Reference: article PMC12343871
